Assay results reported in ChEMBL document CHEMBL4316593 (Eur J Med Chem, 2019).
The source gives many values for each of these; only a part stands here.

What was measured:
Format in all cases: cell-based
Conditions in all cases: U-87MG ATCC
[1] = Inhibition of RTK/PI3K/AKT/mTOR signaling in human U87 cells assessed as up regulation of endoplasmic reticulum-golgi intermediate compartment 1 gene expression at cytotoxic IC50 measured after 48 hrs relative to control
[2] = Inhibition of RTK/PI3K/AKT/mTOR signaling in human U87 cells assessed as up regulation of TKT gene expression at cytotoxic IC50 measured after 48 hrs relative to control
[3] = Inhibition of RTK/PI3K/AKT/mTOR signaling in human U87 cells assessed as down regulation of FAM118B gene expression at cytotoxic IC50 measured after 48 hrs relative to control
[4] = Inhibition of RTK/PI3K/AKT/mTOR signaling in human U87 cells assessed as up regulation of NRP1 gene expression at cytotoxic IC50 measured after 48 hrs relative to control
[5] = Inhibition of RTK/PI3K/AKT/mTOR signaling in human U87 cells assessed as down regulation of ELOVL5 gene expression at cytotoxic IC50 measured after 48 hrs relative to control
[6] = Inhibition of RTK/PI3K/AKT/mTOR signaling in human U87 cells assessed as down regulation of EZH2 gene expression at cytotoxic IC50 measured after 48 hrs relative to control
[7] = Inhibition of RTK/PI3K/AKT/mTOR signaling in human U87 cells assessed as down regulation of UPP1 gene expression at cytotoxic IC50 measured after 48 hrs relative to control
[8] = Inhibition of RTK/PI3K/AKT/mTOR signaling in human U87 cells assessed as up regulation of SPEG complex locus gene expression at cytotoxic IC50 measured after 48 hrs relative to control
[9] = Inhibition of RTK/PI3K/AKT/mTOR signaling in human U87 cells assessed as up regulation of spexin hormone gene expression at cytotoxic IC50 measured after 48 hrs relative to control
[10] = Inhibition of RTK/PI3K/AKT/mTOR signaling in human U87 cells assessed as down regulation of LRRCC1 gene expression at cytotoxic IC50 measured after 48 hrs relative to control
[11] = Inhibition of RTK/PI3K/AKT/mTOR signaling in human U87 cells assessed as up regulation of nuclear factor, erythroid 2 like 3 gene expression at cytotoxic IC50 measured after 48 hrs relative to control
[12] = Inhibition of RTK/PI3K/AKT/mTOR signaling in human U87 cells assessed as down regulation of ETV3 gene expression at cytotoxic IC50 measured after 48 hrs relative to control
[13] = Inhibition of RTK/PI3K/AKT/mTOR signaling in human U87 cells assessed as down regulation of NFS1 gene expression at cytotoxic IC50 measured after 48 hrs relative to control
[14] = Inhibition of RTK/PI3K/AKT/mTOR signaling in human U87 cells assessed as down regulation of TTL gene expression at cytotoxic IC50 measured after 48 hrs relative to control
[15] = Inhibition of RTK/PI3K/AKT/mTOR signaling in human U87 cells assessed as down regulation of SPAG9 gene expression at cytotoxic IC50 measured after 48 hrs relative to control
[16] = Inhibition of RTK/PI3K/AKT/mTOR signaling in human U87 cells assessed as up regulation of kinesin family member 5A gene expression at cytotoxic IC50 measured after 48 hrs relative to control
[17] = Inhibition of RTK/PI3K/AKT/mTOR signaling in human U87 cells assessed as up regulation of KDELR2 gene expression at cytotoxic IC50 measured after 48 hrs relative to control
[18] = Inhibition of RTK/PI3K/AKT/mTOR signaling in human U87 cells assessed as up regulation of AGPAT2 gene expression at cytotoxic IC50 measured after 48 hrs relative to control
[19] = Inhibition of RTK/PI3K/AKT/mTOR signaling in human U87 cells assessed as up regulation of RNF165 gene expression at cytotoxic IC50 measured after 48 hrs relative to control
[20] = Inhibition of RTK/PI3K/AKT/mTOR signaling in human U87 cells assessed as down regulation of ZCCHC6 gene expression at cytotoxic IC50 measured after 48 hrs relative to control
[21] = Inhibition of RTK/PI3K/AKT/mTOR signaling in human U87 cells assessed as down regulation of ARID3B gene expression at cytotoxic IC50 measured after 48 hrs relative to control
[22] = Inhibition of RTK/PI3K/AKT/mTOR signaling in human U87 cells assessed as down regulation of H3F3B gene expression at cytotoxic IC50 measured after 48 hrs relative to control
[23] = Inhibition of RTK/PI3K/AKT/mTOR signaling in human U87 cells assessed as down regulation of RAE1 gene expression at cytotoxic IC50 measured after 48 hrs relative to control
[24] = Inhibition of RTK/PI3K/AKT/mTOR signaling in human U87 cells assessed as up regulation of FOXO6 gene expression at cytotoxic IC50 measured after 48 hrs relative to control
[25] = Inhibition of RTK/PI3K/AKT/mTOR signaling in human U87 cells assessed as down regulation of STX11 gene expression at cytotoxic IC50 measured after 48 hrs relative to control
[26] = Inhibition of RTK/PI3K/AKT/mTOR signaling in human U87 cells assessed as up regulation of FLNC gene expression at cytotoxic IC50 measured after 48 hrs relative to control
[27] = Inhibition of RTK/PI3K/AKT/mTOR signaling in human U87 cells assessed as up regulation of solute carrier family 37 member 4 gene expression at cytotoxic IC50 measured after 48 hrs relative to control
[28] = Inhibition of RTK/PI3K/AKT/mTOR signaling in human U87 cells assessed as up regulation of pleckstrin and Sec7 domain containing 3 gene expression at cytotoxic IC50 measured after 48 hrs relative to control
[29] = Inhibition of RTK/PI3K/AKT/mTOR signaling in human U87 cells assessed as down regulation of RNF20 gene expression at cytotoxic IC50 measured after 48 hrs relative to control
[30] = Inhibition of RTK/PI3K/AKT/mTOR signaling in human U87 cells assessed as down regulation of CDC20 gene expression at cytotoxic IC50 measured after 48 hrs relative to control
[31] = Inhibition of RTK/PI3K/AKT/mTOR signaling in human U87 cells assessed as down regulation of PTP4A1 gene expression at cytotoxic IC50 measured after 48 hrs relative to control
[32] = Inhibition of RTK/PI3K/AKT/mTOR signaling in human U87 cells assessed as up regulation of interferon regulatory factor 2 binding protein 2 gene expression at cytotoxic IC50 measured after 48 hrs relative to control

SMILES: CC(=O)C(=NNc1ccccc1C#N)C(C)=O
- log2FC [1]: 1.14
- log2FC [2]: 0.429
- log2FC [3]: -0.857
- log2FC [4]: 3.4
- log2FC [5]: -0.454
- log2FC [6]: -0.518
- log2FC [7]: -2.49
- log2FC [8]: 1.25
- log2FC [9]: 1.44
- log2FC [10]: -2.05
- log2FC [11]: 1.2
- log2FC [12]: -0.886
- log2FC [13]: -1.16
- log2FC [14]: -1.18
- log2FC [15]: -0.811
- log2FC [16]: 0.964
- log2FC [17]: 0.557
- log2FC [18]: 0.626
- log2FC [19]: 2.23
- log2FC [20]: -1.26
- log2FC [21]: -1.17
- log2FC [22]: -1.1
- log2FC [23]: -0.729
- log2FC [24]: 2.49
- log2FC [25]: -3.46
- log2FC [26]: 0.609
- log2FC [27]: 0.857
- log2FC [28]: 0.865
- log2FC [29]: -0.499
- log2FC [30]: -0.538
- log2FC [31]: -0.959
- log2FC [32]: 0.679
